Laboratory results published in patent publication US6767887B1 (Roche Diagnostics GmbH, priority 1999, dated 2004).
Where no end group is shown, it is not given here.

Test: general procedure: Fmoc solid-phase peptide synthesis; PAL-Ala-aminomethyl-polystyrene(1%)divinylbenzene (0.5 mmol/g) or TentaGel Rink-amide (0.18 mmol/g); DIC/HOBt or TBTU/HOBt with DIEA
Conditions: whole synthesis, scale of the general procedure 0.02 mmol or 0.0076 mmol

Row | Substance | final purity (method not given)
1 | Ac-[Nle^14, R^30]-Ex-3-(3-30)—NH2 | 99%
2 | HADGTFTSDLSSYMEGQAVKEFIAWLVKGR-NH2 | 99%
3 | HGEGTFTSDLSKQMEEEAVRAFIEWLKAGR-NH2 (C-terminal amide) | ≧95%
4 | HGEGTFTSDLSKQMEEEAVRAFIEWLKNGR-NH2 | ≧95%
5 | HSDGTFTSDLSKQ-Nle-EEEAVRLFIEWLENGR-H2 | ≧99%
6 | HSDGTFTSDLSKQMEEEAVRLFIEWLKNGR-NH2 | 99%
7 | HSDGTFTSDLSKQNleEEEAVRLFIEWLKNGY—NH2 | >99%
8 | HSEGTFTSDLSKQAEEEAVRLFIEWLKNGR-NH2 | 99%
9 | [A^2, Nle^14, R^30]-Ex-3-(1-30)—NH2 | 95%
10 | [A^14, R^30]-Ex-3-(1-30)—NH2 | 95%
11 | [C^2, Nle^14, R^30]-Ex-3-(1-30)—NH2 | 95%
12 | [D^2, Nle^14, R^30]-Ex-3-(1-30)—NH2 | 95%
13 | [E^2, Nle^14, R^30]-Ex-3-(1-30)—NH2 | >99%
14 | [F^2, Nle^14, R^30]-Ex-3-(1-30)—NH2 | 98%
15 | [G^2, Nle^14, R^30]-Ex-3-(1-30)—NH2 | 95%
16 | [H^2 Nle^14R^30]-Ex-3-(1-30)—NH2 | >99%
17 | [I^2, Nle^14, R^30]-Ex-3-(1-30)—NH2 | >99%

Row | Substance | final purity (method not given)
18 | [K^2, Nle^14, R^30]-Ex-3-(1-30)—NH2 | 95%
19 | [K^2, P^3, A^14, R^30]-Ex-3-(1-30)—NH2 | 99%
20 | [L^2, Nle^14, R^30]-Ex-3-(1-30)—NH2 | >99%
21 | [M^2, Nle^14, R^30]-Ex-3-(1-30)—NH2 | >99%
22 | [N^2Nle^14, R^30]-Ex-3-(1-30)—NH2 | >99%
23 | [Nla^14, R^30]-Ex-3-(2-30)—NH2 | >99%
24 | [Nle^14, R^30]-Ex-3-(1-30)—NH2 | 95%
25 | [Nle^14, R^30]-Ex-3-(1-30)—OH | 95%
26 | [Nle^14, R^30]-Ex-3-(3-30)—NH2 | >99%
27 | [Nle^14]-Ex-3-(1-27)—NH2 | 99%
28 | [P^2, Nle^14, R^30]-Ex-3-(1-30)—NH2 | 96%
29 | [Q^2, Nle^14, R^30]-Ex-3-(1-30)—NH2 | >99%
30 | [R^2, Nle^14, R^30]-Ex-3-(1-30)—NH2 | >99%
31 | [T^2, Nle^14, R^30]-Ex-3-(1-30)—NH2 | >99%
32 | [V^2, Nle^14, R^30]-Ex-3-(1-30)—NH2 | >99%
33 | [W^2, Nle^14, R^30]-Ex-3-(1-30)—NH2 | >99%
34 | [Y^2, Nle^14, R^30]-Ex-3-(1-30)—NH2 | 95%
